# Source: article PMC5996148
# The list shows a part of the results.
# Key:
# Test in all cases: protein microarray (ProtoArray v5.0), streptavidin-Alexa Fluor 647
# Settings in all cases: 3'-biotin; 20 mM Tris (pH 7.5), 5 mM MgCl2, 100 mM KCl, 0.1% Tween-20, A/T-rich and random oligonucleotide blockers; temperature not stated; high values mean tight binding
# SNX19 (human) = system: SNX19 (human)
# SNX24 (human) = system: SNX24 (human)
# SNX4 (human) = system: SNX4 (human)
# SOCS2 (human) = system: SOCS2 (human)
# SOCS3 (human) = system: SOCS3 (human)
# SOD1 (human) = system: SOD1 (human)
# SORD (human) = system: SORD (human)
# SP100 (human) = system: SP100 (human)
# SPAG16 (human) = system: SPAG16 (human)
# SPAG6 (human) = system: SPAG6 (human)
sequence,measurement,setting,value
GGGAGGCTGAGGCAGG [G4-1 biotinylated (PQS2)],binding signal,SNX19 (human),-0.328 z-score
same,binding signal,SNX24 (human),-0.252 z-score
same,binding signal,SNX4 (human),-0.294 z-score
same,binding signal,SOCS2 (human),-0.281 z-score
same,binding signal,SOCS3 (human),-0.305 z-score
same,binding signal,SOD1 (human),-0.353 z-score
same,binding signal,SORD (human),-0.316 z-score
same,binding signal,SP100 (human),-0.329 z-score
same,binding signal,SPAG16 (human),-0.35 z-score
same,binding signal,SPAG6 (human),-0.332 z-score

# Reformatted tab-delimited: entries from further up
sequence	measurement	setting	value
GGGAGGCTGAGGCAGG [G4-1 biotinylated (PQS2)]	binding signal	SPAG16 (human)	-0.35 z-score
same	binding signal	SPAG6 (human)	-0.332 z-score
